Hit rate of the full screen: of about 31,000 sequences, about 1,400 (4.5%) were called active.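 How the source made its calls: active means median seed-adjusted z-score above 1 or below -1; inactive means the rest.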 The list shows a part of the results.

The nature of this assay: Novel Modifiers of Survival Motor Neuron (SMN) Protein: Gene Identification via Genome-wide siRNA Screen.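 Further: luminescence tracks full-length SMN protein made from the SMN2 reporter.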 Conditions: HEK293T SMN2-luciferase reporter, siRNA knockdown, 72 h; actives lie on both sides. The essentials:
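HEK293T cells stably carrying an SMN2 promoter/splicing cassette–luciferase reporter were reverse-transfected with 1 pmol siRNA per well (druggable-genome library, 3 siRNAs per gene) and grown 72 h at 37 °C. Luminescence, normalized to negative-control siRNA and log10-transformed, was scored as MAD.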
For orientation: A reporter such as luciferase makes a cellular process visible.
On to CUGUAUUAGUGAAUCCGAUTT against MTRR, for which the median seed-adjusted z-score is inactive: -0.381. For AAGUACAUAUAACCACUUATT against RAB14, the median seed-adjusted z-score is inactive: -0.0567.

As for CCUGAAUUCUGGGUCAGAATT against AGXT2L2, the median seed-adjusted z-score is inactive: -0.0495.

For AGCAUUCUGUUAUGACCUATT against FLNC, the median seed-adjusted z-score was inactive: 0.00217. The value for ACAUUCAUGUGGGUGACUATT against CYP27B1 was inactive: -0.149; that for GGAUCCAGGAUGAAAUUGATT against PADI2 was inactive: -0.199; that for GCAUCAGCAUGUCGGUGGATT against ARID3A was active: -1.11. Regarding GGAGCUGAAUGAGCUGACATT against OSBPL7, the median seed-adjusted z-score was inactive: 0. The value for CAGUAGAAGCGAUGCAGGUTT against RBM42 was inactive: 0. In the case of GCAAGUCCCGCAAAAAGAATT against NEIL1, the median seed-adjusted z-score is inactive: -0.168. The value for GCUUAUGUAUGAGCACGAATT against KIF13B was inactive: 0.456; that for GGAUGUCUCUUUGACCAUATT against HAVCR1 was inactive: -0.306.

Regarding GAAGGAGUCUUUGACAUUATT against RAB2A, the median seed-adjusted z-score was inactive: -0.038. The value for CGGAUUUUGGAGCAUCUUATT against DYRK3 was inactive: 0.358. As for GAAUCCGGAUGAGUACUAUTT against PHF17, the figure is active: 1.01; as for GGCUUUCCUUGGAGUGAAATT against EZR, inactive: 0.0344. As for CCAUUAGACGGAUUGGACUTT against GYS2, the median seed-adjusted z-score was inactive: 0.0101. GCAGAAUUCUCCUACCAAATT against ENTPD3: the median seed-adjusted z-score was inactive: -0.28.

Consider CCUUCAUCGAGUUCCGGAATT against PMM1, for which the median seed-adjusted z-score is inactive: -0.597. As for CUCUCCAAAUUUUACCCAATT against MS4A6A, the figure is inactive: 0.174.

For GCUCAACUCUCAUUCGGCATT against ZNF550, the median seed-adjusted z-score is inactive: 0.131. Regarding ACCUGAUGGUGGGCGCAAATT against MYBPC3, the median seed-adjusted z-score is inactive: 0.304.

As to GGUAGUAGUUCCCAAGUUATT against ATP6V1C1, the median seed-adjusted z-score was inactive: 0.0821. Consider CCACAGAAAUUAGAGGUUATT against TRIM40, for which the median seed-adjusted z-score is inactive: 0.108.

Consider GUGUGGACUUGGAACAAUATT against THUMPD2, for which the median seed-adjusted z-score is inactive: -0.129. Turning to GGAUCAUGCAGGACUUUGATT against DHFRL1, the median seed-adjusted z-score was inactive: -0.646. With GGAGGUCAUUAAAACACCATT against HADH, the median seed-adjusted z-score was active: 1.11. Take GUAUUGUAGGCACAACAUATT against ADAM20: the median seed-adjusted z-score was inactive: 0.0167.

In the case of GAGCUUUGAGGAGACUGUATT against SLC1A6, the median seed-adjusted z-score was inactive: 0.0455.

Turning to GGGACUAUUCCAAAACCCATT against FLAD1, the median seed-adjusted z-score is inactive: 0.367. The value for CCAGGCUAUUUGUACCGAUTT against CCR6 was inactive: 0.103. The value for CGCUUAUCCAGGCAGCUAATT against CTNNA2 was inactive: -0.0686; that for GGGACAUCCUUUCCGGAAATT against NDUFS3 was inactive: -0.54. In the case of GCUGAGUCAUGAGAUCAGATT against MYOM3, the median seed-adjusted z-score is inactive: -0.012. Consider CAAUUUCUCUUGAUAUUAATT against ATP5L, for which the median seed-adjusted z-score is inactive: -0.295. The value for GUAACUCUGUUGUAACAAUTT against CALCRL was inactive: 0.28; that for GCAAUUAUGCGAUAUGGUATT against CHD4 was inactive: 0.625; that for GGCUGGAUCUGCUACUGGATT against SPSB1 was inactive: -0.378. Take CCUUCGAUGUCACUCGAAATT against CNOT4: the median seed-adjusted z-score is inactive: -0.116. Regarding CCAGAAUAGUGUUCGGGAATT against CTPS, the median seed-adjusted z-score is inactive: 0.0943. The value for CCAAGCGUGUCAUCAAUAATT against PAX6 was inactive: -0.275; that for CGCUAUGACAACUACAAAATT against SPPL3 was inactive: 0.652.

For GGUUUGGAGUGGAAGUCGATT against ABCB6, the median seed-adjusted z-score was inactive: -0.359. In the case of CAACACCAGUCCCACCAGATT against ZNF574, the median seed-adjusted z-score is inactive: -0.528. As for AGCUAAUUGUGAUCAACGATT against ADAM11, the figure is inactive: 0.102; as for CCAUGGAGGUCCGCAUUAATT against UNC5A, inactive: 0.517; as for GGGAAGUGGUAAAUAAAGATT against MCM7, inactive: 0.0993.

On to CUAAAGAGGUCAACAUUGATT against RGS16, for which the median seed-adjusted z-score is inactive: 0. In the case of ACACCCGCGUGUCUGAUUATT against PPAP2C, the median seed-adjusted z-score was active: -1.12. As to GCCUCAGUUUCGCAUCAAATT against PLAT, the median seed-adjusted z-score is inactive: 0.246. As for AGAGGGACGCGUACAAGGATT against MAF, the figure is inactive: -0.418; as for GCUCCCUGCUCACUUUUCATT against INHBE, inactive: 0.172. The value for CUACCGUAACAACCGAAAATT against SCN10A was inactive: -0.401. The value for CAAGUGGAAUUUCGAUUUUTT against CDKN1B was inactive: 0.244. Take GCCUACAACUUGAUAAGAATT against PIK3C2A: the median seed-adjusted z-score is inactive: 0.0177. As for GACUGGGUCUGGUAAAACATT against DHX15, the figure is active: 1.36; as for CACCUGAAGUAAAUCGGAUTT against SF3B14, active: -1.26. The value for GCUAACUACCAAGUCCUAATT against SLC8A1 was inactive: 0.221; that for GCACGAUGUAUACAGCUUUTT against RIPK4 was inactive: 0.188; that for AGUACAUCGUGUCCUGUAATT against ACOT11 was inactive: 0.636. On to CUGGGUAUCUGGUACAUCATT against GPI, for which the median seed-adjusted z-score is inactive: -0.122.

As for GGUAAAAUCAAGUACCAUATT against TIGD2, the median seed-adjusted z-score is inactive: -0.13. For the sequence GAAGUGGACUAAAGUAUUATT against DUSP23, the median seed-adjusted z-score is inactive: -0.537. GCACUUACGAGUCCAUCGATT against ZNF507: the median seed-adjusted z-score was inactive: -0.262. The value for GAACCUCUCUGAAACUGCUTT against PBLD was inactive: -0.0809. As for GGGCUGCAACAUUCGCACATT against PLA2G5, the figure is inactive: 0.0601; as for GCAACUCCUGCAUUACUUATT against PIP5K1A, inactive: 0.0924; as for AACCAGUCCUUAACUCUUATT against ZNF273, inactive: 0.0489.

Source of the values: PubChem BioAssay AID1347426 (Functional Genomics Laboratory (NCATS/FGL), 2020).
